Measured values reported in PubChem BioAssay AID504327 (National Center for Advancing Translational Sciences (NCATS), 2011).
Values joined by “and” are separate entries in the source; they are usually repeats but may differ in a detail not shown here. Equal entries are not always repeated. The campaign covered roughly 390,000 compounds. About 820 (0.21%) were called active. Inconclusive means that the source gave no clear call. Such entries were picked first, then a sample of the others. The call rests on the fitted dose curve; in most records, active means well fitted inhibition curve with a large enough effect; inconclusive means small, poorly fitted or top-dose-only effect, or another doubt; inactive means no such curve, though single readings can be large or run the other way. A potency beside an inconclusive call is a rough fit, not a confirmed value.

Chains of the proteins cited; added tags and fusions are not shown.
UniProt Q92830, whole entry, looked up: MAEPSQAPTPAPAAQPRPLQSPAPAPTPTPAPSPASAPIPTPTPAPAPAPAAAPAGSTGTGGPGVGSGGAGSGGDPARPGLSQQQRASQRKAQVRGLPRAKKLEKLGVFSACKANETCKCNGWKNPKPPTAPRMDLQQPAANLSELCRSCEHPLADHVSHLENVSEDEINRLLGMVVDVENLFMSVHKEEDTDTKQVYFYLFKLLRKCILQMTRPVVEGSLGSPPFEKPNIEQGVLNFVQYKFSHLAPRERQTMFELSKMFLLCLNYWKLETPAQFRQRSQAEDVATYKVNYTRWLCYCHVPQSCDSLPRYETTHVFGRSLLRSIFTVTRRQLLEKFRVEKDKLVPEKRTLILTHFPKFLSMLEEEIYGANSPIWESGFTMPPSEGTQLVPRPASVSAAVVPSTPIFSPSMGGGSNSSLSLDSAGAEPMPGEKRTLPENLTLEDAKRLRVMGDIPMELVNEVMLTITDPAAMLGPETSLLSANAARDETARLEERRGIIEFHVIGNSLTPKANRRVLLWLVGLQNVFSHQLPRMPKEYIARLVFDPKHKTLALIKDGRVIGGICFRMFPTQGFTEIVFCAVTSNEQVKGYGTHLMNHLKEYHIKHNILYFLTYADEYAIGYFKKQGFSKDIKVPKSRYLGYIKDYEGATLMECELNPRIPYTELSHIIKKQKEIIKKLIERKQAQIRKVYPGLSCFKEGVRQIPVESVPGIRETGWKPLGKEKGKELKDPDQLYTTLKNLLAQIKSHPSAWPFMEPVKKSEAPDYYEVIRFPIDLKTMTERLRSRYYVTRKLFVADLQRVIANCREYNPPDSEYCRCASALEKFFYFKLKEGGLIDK

target: Histone acetyltransferase KAT2A (Homo sapiens) (UniProt Q92830); assay: qHTS Assay for Inhibitors of GCN5L2; conditions: GCN5L2 HAT assay, ThioGlo1 CoA-SH fluorescence; activity change, negative = inhibition: at 58.9 µM (top of the series) unless noted
Summary of the method: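 GCN5L2 (20nM final) in 50mM HEPES, 0.1mM EDTA pH 7.5, 0.01% Tween-20 was preincubated 15 min at room temperature with compound, then given ThioGlo1 (50uM), H3(1-25) peptide (75uM) and acetyl-CoA (70uM); CoA-thiol fluorescence (Ex340/Em540) was read at 0 and 20 min.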
On the % scale 0 is the no-effect control and ±100 the full control effect; potency means the concentration at half of the fitted maximal effect.

Row | Compound | Potency | activity change, negative = inhibition
1 | CCn1c(CNC(=O)c2cccc(C)c2)nnc1SCC(=O)NC1CCCCC1C (stereo not drawn) | inconclusive: 20 µM [inhibitor, single point] | –
2 | N#Cc1c(N2CCN(C(=O)c3ccco3)CC2)nc(-c2ccccc2)c2c1CCCC2 | inactive | –
3 | COc1ccc(-n2ncc(C(C)NS(=O)(=O)c3cccs3)c2C)cc1 (stereo not drawn) | inconclusive: 5.01 µM [inhibitor, full curve, poor fit] | –
4 | CCn1c(C)nc2cc(C(=O)N/N=C/c3ccc(O)c(O)c3O)ccc21 | inconclusive: 39.8 µM [inhibitor, single point] | –
5 | CCCCSCCCNC(=O)C1CCC(CNS(=O)(=O)c2ccc(NC(C)=O)cc2)CC1 (stereo not drawn) | inconclusive: 0.708 µM [inhibitor, full curve, poor fit] | –
6 | CS(=O)(=O)N1CCC(C(=O)N2CCN(C(c3ccccc3)c3ccccc3)CC2)CC1 | inactive | –
7 | Cc1ccc(SSc2cc(C)ccc2N)c(N)c1 | inconclusive: 15.8 µM [inhibitor, partial curve] | –
8 | CCCCC[C@@H]1C=C(C(=O)O)[C@H](c2ccc(Cl)cc2)N1S(=O)(=O)c1ccc(C)cc1 | inconclusive: 35.5 µM [inhibitor, single point] | –
9 | COc1ccc(C2=NOC(C(=O)NCc3cccs3)C2)cc1 (stereo not drawn) | inconclusive: 39.8 µM [inhibitor, single point] | –
10 | CC(=O)OCC1=C(C(=O)O)N2C(=O)C(NC(=O)Cc3ccccc3)C2SC1 (stereo not drawn) | inactive | –
11 | CCc1cccc(NS(=O)(=O)c2cccc3cccnc23)c1 | inconclusive: 39.8 µM [inhibitor, single point] | –
12 | Cc1cc(/C=N/NC(=O)c2cccs2)c(C)n1-c1ccccc1 | – | inconclusive: -45.7% [inhibitor] [at 0.501 µM]
13 | CSc1nc(SCCO)c2sc3nc(-c4ccco4)c4c(c3c2n1)CC(C)(C)OC4 | active: 12.6 µM | –
14 | O=C(O)c1cc(-c2ccc(-c3ccc(F)cc3)o2)nc2ccccc12 | inconclusive: 28.2 µM [inhibitor, partial curve] | –
15 | CCOc1ccc(N(C(=O)/C=C/C(=O)Nc2cc(C)on2)C(C(=O)NC2CCCC2)c2ccccc2C)cc1 (stereo not drawn) | inconclusive: 1.41 µM [inhibitor, single point] | –
16 | COc1ccc(CC(=O)Nc2sc3c(c2C(N)=O)CCCC3)cc1 | inactive | –
17 | O=C(O)c1c(Cl)c(Cl)c(Cl)c(Cl)c1-c1c2cc(I)c(=O)c(I)c-2oc2c(I)c(O)c(I)cc12 | active: 3.55 µM and active: 2 µM | –
18 | COc1cc(OC)cc(C(=O)NCC(=O)OCC(=O)Nc2cc(S(C)(=O)=O)ccc2Cl)c1 | inconclusive: 10 µM [inhibitor, partial curve, poor fit] | –
19 | O=C(COC(=O)c1cccs1)NCCCc1ccccc1 | inconclusive: 8.91 µM [inhibitor, single point] | –
20 | CC(C)CSC1=NSC2=NC(=O)/C(=C\c3coc4ccccc4c3=O)C(=N)N12 | inconclusive: 31.6 µM [inhibitor, single point] | –
21 | O=C(NCCN1CCCCCC1)C1CC(=O)N(CCc2ccccc2)C1 (stereo not drawn) | inconclusive: 0.794 µM [inhibitor, full curve, poor fit] | –
22 | COc1ccc(S(=O)(=O)N/N=C(/C)c2cccc(NC(=O)c3ccccc3Cl)c2)cc1 | inconclusive: 39.8 µM [inhibitor, single point] | –
23 | CN1CCN(c2ccc(NC(=O)COc3ccccc3)cc2Cl)CC1 | inactive | –

Row | Compound | Potency | activity change, negative = inhibition
24 | O=C(NCCc1ccccn1)c1ccc2nc(Cc3ccccc3F)oc2c1 | inconclusive: 0.126 µM [inhibitor, full curve, poor fit] | –
25 | COc1cccc(C2/C(=C(/O)c3ccc4c(c3)CC(C)O4)C(=O)C(=O)N2CCCn2ccnc2)c1 (stereo not drawn) | inactive | –
26 | Cc1c(Cl)cccc1NC(=O)C1CCN(c2nc3ccccc3[nH]2)CC1 | inactive | –
27 | Cc1c(Cl)cccc1NC(=O)Cn1c(=O)n(Cc2nc(-c3ccccc3)no2)c(=O)c2cc3c(cc21)OCO3 | inactive | –
28 | O=C(OCCN1C(=O)c2cccc3c(N4CCOCC4)ccc(c23)C1=O)c1cccc(Cl)c1 | inconclusive: 22.4 µM [inhibitor, partial curve] | –
29 | Cc1ccc(Cn2nnc3c(=O)[nH]c(C4CCN(C(=O)Cc5cccs5)CC4)nc32)cc1 | inconclusive: 39.8 µM [inhibitor, single point] | –
30 | CCN(CC)CCCNc1oc(-c2cccc(Cl)c2)nc1C#N | inconclusive: 39.8 µM [inhibitor, single point] | –
31 | CCOC(=O)N1CCN(c2nc3ccccc3n3cnnc23)CC1 | inconclusive: 22.4 µM [inhibitor, partial curve, poor fit] | –
32 | CN1CC(=O)N=C1N | inconclusive: 39.8 µM [inhibitor, single point] | –
33 | Cc1cc(C)cc(NC(=O)CSc2nc3sc4c(c3c(=O)[nH]2)CCCC4)c1 | inactive | –
34 | CC1CCCN(C(=O)CN2C(=O)CSc3ccc(S(=O)(=O)N4CCOCC4)cc32)C1 (stereo not drawn) | inactive | –
35 | Cc1cc(NCc2ccccn2)ccc1Br | inactive | –
36 | Cc1ccnc2nc(C(=O)Nc3cc(Cl)ccc3N3CCOCC3)nn12 | inconclusive: 0.794 µM [inhibitor, single point] | –
37 | CCCc1cc(C(=O)N2CCCC(Cc3cccc(Cl)c3)(C(=O)OCC)C2)n(C)n1 (stereo not drawn) | inactive | –
38 | CCc1ccc(CC2S/C(=C(\C#N)C(C)=O)NC2=O)cc1 (stereo not drawn) | inconclusive: 2.51 µM [inhibitor, full curve] | –
39 | Cc1ccc(C(=O)NC(C)c2ccncc2)o1 (stereo not drawn) | inconclusive: 8.91 µM [inhibitor, single point] | –
40 | O=C(O)c1ccc(/C=C2/SC(=S)N(c3cccc(C(F)(F)F)c3)C2=O)cc1 | inconclusive: 39.8 µM [inhibitor, single point] | –
41 | COc1ccc(Cn2c(=O)n(-c3ccc(F)c(Cl)c3)c(=O)c3c2c2cc(OC)ccc2n3C)cc1 | inactive | –
42 | CN1C(=O)c2ccccc2NC(=O)[C@]12O[C@@H]2c1cccc(O)c1 | inconclusive: 39.8 µM [inhibitor, single point] | –
43 | O=C(NC(=S)Nc1ccc2c(c1)OCCO2)c1cccc(Br)c1 | inactive | –
44 | COc1cc(C2CC(=O)N3CN(Cc4ccco4)CSC3=C2C#N)ccc1OCc1ccccc1 (stereo not drawn) | inconclusive: 31.6 µM [inhibitor, single point] | –
45 | CCn1cc2nc(SCc3cccc(C(F)(F)F)c3)n(Cc3ccc(Cl)cc3)c(=O)c2n1 | inactive | –
46 | O=C(COc1ccc(S(=O)(=O)N2CCCC2)cc1)NCC1CCCO1 (stereo not drawn) | inconclusive: 20 µM [inhibitor, single point] | –

Row | Compound | Potency | activity change, negative = inhibition
47 | CCNC(=O)c1ccc(-n2nc(C)cc2-c2ccccc2)cc1 | inconclusive: 0.891 µM [inhibitor, single point] | –
48 | C=CCCC(=O)N1CCC(n2nccc2NC(=O)c2ccccc2C)CC1 | inconclusive: 0.316 µM [inhibitor, full curve, poor fit] | –
49 | CCN1CCN(c2ccc(S(=O)(=O)N3CCCCC3)cc2NC(=O)COc2cc(C)ccc2Cl)CC1 | inactive | –
50 | CCC1CN(C)C2Cc3c([nH]c4ccccc34)C(=O)CC1C2C(=O)OC (stereo not drawn) | inconclusive: 5.01 µM [inhibitor, full curve, poor fit] | –
51 | COc1ccc(OC)c(-c2nc3cc4ccccc4cc3nc2-c2ccccc2)c1 | inactive | –
52 | Cn1c(-n2cccc2)c(-c2c(-c3ccc(F)cc3)[nH]c3c2c(=O)n(C)c(=O)n3C)c(=O)n(C)c1=O | inactive | –
53 | COC(=O)c1cc(-c2ccc(C)o2)nc2ccccc12 | inconclusive: 22.4 µM [inhibitor, single point] | –
54 | O=S(c1cc(Cl)cc(Cl)c1O)c1cc(Cl)cc(Cl)c1O | inconclusive: 35.5 µM [inhibitor, single point] | –
55 | Cc1ccccc1Cn1cnc2c(NS(C)(=O)=O)c(C)c(C)cc21 | inconclusive: 8.91 µM [inhibitor, single point] | –
56 | COc1ccccc1OCCCCN1CCN(C(c2ccccc2)c2ccccc2)CC1 | inactive | –
57 | COc1ccc(Cn2c(CO)cnc2SCC(=O)Nc2ccc3c(c2)OCCO3)cc1 | inactive | –
58 | O=C(O)c1ccc(Cn2cnc3cccnc32)cc1 | inconclusive: 3.16 µM [inhibitor, single point] | –
59 | Cc1cc(/C=C2/C(=O)NN(c3ccccc3)C2=O)c(C)n1-c1cccc(O)c1 | inactive | –
60 | N#CC1=C(N)Oc2cc(O)c(C=Nc3ccccc3)cc2C1c1ccccc1 (stereo not drawn) | inconclusive: 39.8 µM [inhibitor, single point] | –
61 | CCc1nc(-c2cc(S(=O)(=O)N3CCN(c4ccc(OC)cc4)CC3)ccc2OC)no1 | active: 25.1 µM | –
62 | O=C(NCc1ccccc1)c1nc(S(=O)(=O)Cc2ccc(F)cc2)ncc1Cl | inactive | –
63 | CCOc1ccc(NC(=S)Nc2cc(-c3ccccc3)[nH]n2)cc1 | inconclusive: 39.8 µM [inhibitor, single point] | –
64 | CCn1c(C)nc2cc(C(=O)NNC(=O)Nc3cccc(Cl)c3)ccc21 | inconclusive: 2.82 µM [inhibitor, single point] | –
65 | O=C(O)c1cc2c(cn1)[nH]c1ccccc12 | inconclusive: 39.8 µM [inhibitor, single point] | –
66 | CC[N+](CC)(CC)CCCCOc1ccc2c(c1)C(=O)c1cc(OCCCC[N+](CC)(CC)CC)ccc1-2 | inconclusive: 15.8 µM [inhibitor, partial curve] | –
67 | CCOC(=O)c1c(NC(=O)C2C3CCC(O3)C2C(=O)O)sc(C)c1-c1ccc(C)cc1 (stereo not drawn) | inconclusive: 10 µM [inhibitor, partial curve] | –
68 | Brc1ccccc1-c1nnc(CSc2nnnn2-c2ccccc2)o1 | inconclusive: 5.01 µM [inhibitor, full curve, poor fit] | –

Copied from the list:
Cn1c(-n2cccc2)c(-c2c(-c3ccc(F)cc3)[nH]c3c2c(=O)n(C)c(=O)n3C)c(=O)n(C)c1=O | Potency: inactive
COc1ccccc1OCCCCN1CCN(C(c2ccccc2)c2ccccc2)CC1 | Potency: inactive
O=C(O)c1ccc(Cn2cnc3cccnc32)cc1 | Potency: inconclusive: 3.16 µM [inhibitor, single point]
